Assay results reported in patent publication US10933075B2, “Materials and methods for suppressing and/or treating bacterial infections and related symptoms” (Indiana University Research and Technology Corporation, priority 2017, dated 2021).
For at least one compound, name, drawing or mass did not settle the structure.

Test system: S. aureus USA300
Test: Murine model of peritoneal infection (survival, anti-virulence effect)
Type: in vivo
Conditions: mice i.p. infected with S. aureus USA300; 50 μg i.p. once every day for 7 days, from one hour post infection
Description: FIG. 4. Effect of Streptozotocin on survival. […] Open circles represent percent survival of treated mice (i.e., steptozotocin) after the indicated period. Closed circles represent percent survival of untreated mice (i.e., control). S. aureus (2×10^8 CFU) were i.p. injected into mice (n=10-18).
In this model, mice were i.p. infected with S. aureus USA300. One hour post infection, the test compounds were administered via i.p. injection once every day for 7 days.
To determine the minimal dosage of the compounds for their protective effect, a different amount of the compounds (0-100 μg) were administered after S. aureus infection for 7 days as described above.
The biological half-life of streptozotocin is about 35-40 min. […] Although we administered the compounds every day for 7 days, due to their short half-lives, it is likely that S. aureus cells were exposed to the compounds only briefly. […] To examine the hypothesis, after 2 h post infection with S. aureus, we administered the compounds only once (25 μg for streptozotocin and floxuridine; 50 μg for doxorubicin) and watched the infected mice for 7 days.

## CC(C)n1c(/C=C/C(O)CC(O)CC(=O)O)c(-c2ccc(F)cc2)c2ccccc21 (stereo not shown) [Fluvastatin]
  anti-virulence effect: anti-virulence effect
